What all share (assay): yeast two-hybrid
Assay [1] concerns the target C-myc Binding Protein (MM-1), amino acids 27-175 (human) (UniProt Q99471).
In assay [2] the target is T1, Glucose Transporter 4, amino acids 463-510 (human) (UniProt P14672).
T1 sequence (looked up): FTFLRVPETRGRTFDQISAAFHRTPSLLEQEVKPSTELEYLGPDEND

By UniProt entry, the sequences of proteins in these tests, tags left out. Residues count along the entry.
UniProt Q99471, residues 14-154: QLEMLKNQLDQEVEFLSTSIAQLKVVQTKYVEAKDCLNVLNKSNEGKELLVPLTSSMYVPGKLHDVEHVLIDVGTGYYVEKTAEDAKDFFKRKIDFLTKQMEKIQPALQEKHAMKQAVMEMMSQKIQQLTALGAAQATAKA
UniProt P31751, residues 276-408: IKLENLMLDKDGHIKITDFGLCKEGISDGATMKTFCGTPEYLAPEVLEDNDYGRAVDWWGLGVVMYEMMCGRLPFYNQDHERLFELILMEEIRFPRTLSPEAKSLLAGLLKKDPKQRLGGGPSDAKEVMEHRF
UniProt Q01082, residues 1545-1789: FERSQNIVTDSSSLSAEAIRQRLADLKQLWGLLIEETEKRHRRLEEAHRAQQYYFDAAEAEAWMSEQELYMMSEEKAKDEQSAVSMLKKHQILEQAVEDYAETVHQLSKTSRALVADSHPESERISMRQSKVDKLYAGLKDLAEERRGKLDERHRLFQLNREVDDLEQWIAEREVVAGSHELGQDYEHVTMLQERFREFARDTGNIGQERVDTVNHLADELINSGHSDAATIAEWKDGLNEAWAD
UniProt P63010, residues 214-594: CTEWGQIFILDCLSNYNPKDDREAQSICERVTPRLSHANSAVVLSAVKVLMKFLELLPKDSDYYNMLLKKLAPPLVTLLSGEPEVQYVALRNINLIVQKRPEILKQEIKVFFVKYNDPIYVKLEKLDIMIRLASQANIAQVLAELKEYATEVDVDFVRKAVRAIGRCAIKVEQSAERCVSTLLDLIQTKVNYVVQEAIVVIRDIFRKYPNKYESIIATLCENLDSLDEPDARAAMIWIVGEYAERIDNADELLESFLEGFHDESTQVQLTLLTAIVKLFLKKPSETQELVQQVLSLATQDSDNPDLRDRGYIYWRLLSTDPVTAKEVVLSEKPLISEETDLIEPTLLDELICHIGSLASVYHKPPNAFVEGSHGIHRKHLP

Assay [3] concerns the target Akt kinase 2 (Akt2), amino acids 276-408 (human) (UniProt P31751).

These are yes or no findings as the source states them, for the method shown. Some results given as binding are weak or reduced against the parent protein; the word gives no strength. For part of these data: Sequences can lack the tags named with a protein.

As for “Beta Spectrin, amino acids 1545-1789 (from UniProt Q01082 1545-1789)”, the binding entry in assay [1] is listed as “binds”.

With “MM-1, amino acids 27-168 (from UniProt Q99471 14-154)”, in assay [2], the binding entry was “binds”.

“Beta Adaptin, amino acids 214-594 (from UniProt P63010 214-594)”: the binding entry in assay [3] is on record as “binds”.

Source of the values: patent US20040214255A1.
